No constants are given. Whether binding was seen depends on the method and setting. Some results given as binding are weak or reduced against the parent protein; the word gives no strength.
Target: GST-p104 C-terminal disordered region (504-839) fusion protein with a C-terminal hexa-histidine tag (Theileria annulata) (UniProt Q4U9M9)
Assay: pull-down

Amino acid sequences for entries named in this document (tags omitted). Residues count along the entry.
UniProt Q4U9M9, residues 504-839: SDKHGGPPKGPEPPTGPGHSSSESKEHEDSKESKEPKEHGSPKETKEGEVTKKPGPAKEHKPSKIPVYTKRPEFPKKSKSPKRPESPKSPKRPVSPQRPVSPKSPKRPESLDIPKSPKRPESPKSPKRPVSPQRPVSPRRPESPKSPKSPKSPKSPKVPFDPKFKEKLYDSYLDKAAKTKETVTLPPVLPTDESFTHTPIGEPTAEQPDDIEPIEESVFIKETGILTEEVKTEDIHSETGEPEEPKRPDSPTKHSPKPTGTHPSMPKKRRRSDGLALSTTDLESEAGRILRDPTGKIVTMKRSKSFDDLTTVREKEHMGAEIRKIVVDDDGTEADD

## full-length human JNK2 with an N-terminal hexahistidine tag (from UniProt P45984 1-424)
  binding: binds

Reference: article doi:10.1101/383646
